The list shows a part of the results.
What follows are targets tested with C1CN(CCC1(CC2=CC=C(C=C2)Cl)N)C3=NC=NC4=C3C=CN4 (assay: log2 fold change, soluble protein after heating vs DMSO (PISA); higher = thermal stabilisation; K562 cells, 10 uM, 30 min; active = over 0.2 and 3.5 SD of the protein, either way, in both replicates (recomputed)).
Summary of the method: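 Quantification of soluble protein used TMTpro 16plex LC-MS/MS, with channel sums equalised. Samples were the supernatant after 21,000xg for 90 min of pooled aliquots from K562 cells (2×10^6 cells/mL) treated with 10 μM compound for 30 min, heated for 3 min over 48°C-58°C, and extracted in PBS with 0.5% NP-40 at 4°C. Values, from duplicates, describe thermal stability against control samples on a log2 fold-change scale.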

Chains of the proteins cited; added tags and fusions are not shown. Lines headed by an entry give the natural chain unless they say otherwise; changes in a name come on top.
UniProt Q86X29: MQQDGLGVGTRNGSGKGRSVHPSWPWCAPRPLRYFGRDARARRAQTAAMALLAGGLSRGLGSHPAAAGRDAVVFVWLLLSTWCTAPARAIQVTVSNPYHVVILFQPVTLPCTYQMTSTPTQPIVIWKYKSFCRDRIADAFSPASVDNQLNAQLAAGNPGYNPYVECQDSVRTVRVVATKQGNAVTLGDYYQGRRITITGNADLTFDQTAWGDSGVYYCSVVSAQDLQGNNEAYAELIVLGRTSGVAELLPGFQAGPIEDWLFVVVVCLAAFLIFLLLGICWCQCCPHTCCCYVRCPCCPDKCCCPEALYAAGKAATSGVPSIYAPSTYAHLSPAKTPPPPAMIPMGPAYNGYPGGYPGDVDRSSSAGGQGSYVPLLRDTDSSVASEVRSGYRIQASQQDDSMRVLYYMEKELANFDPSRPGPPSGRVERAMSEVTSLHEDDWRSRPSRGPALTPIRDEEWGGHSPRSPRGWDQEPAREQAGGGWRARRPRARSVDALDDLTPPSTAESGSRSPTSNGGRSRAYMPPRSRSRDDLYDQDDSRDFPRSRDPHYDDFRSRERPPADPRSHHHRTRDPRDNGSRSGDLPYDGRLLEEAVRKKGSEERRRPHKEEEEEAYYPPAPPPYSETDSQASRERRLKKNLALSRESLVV
UniProt Q9H8J5: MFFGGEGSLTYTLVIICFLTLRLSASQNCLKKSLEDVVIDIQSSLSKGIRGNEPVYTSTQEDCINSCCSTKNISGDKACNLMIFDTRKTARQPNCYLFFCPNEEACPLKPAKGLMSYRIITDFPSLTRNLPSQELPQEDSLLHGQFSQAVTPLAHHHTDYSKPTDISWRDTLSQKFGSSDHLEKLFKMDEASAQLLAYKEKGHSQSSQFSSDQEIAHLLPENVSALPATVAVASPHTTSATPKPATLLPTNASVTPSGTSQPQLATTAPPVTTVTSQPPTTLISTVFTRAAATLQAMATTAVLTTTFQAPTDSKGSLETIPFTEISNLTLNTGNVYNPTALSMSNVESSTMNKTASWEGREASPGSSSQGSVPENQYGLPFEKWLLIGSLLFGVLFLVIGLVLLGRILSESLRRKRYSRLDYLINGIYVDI
UniProt Q969L4: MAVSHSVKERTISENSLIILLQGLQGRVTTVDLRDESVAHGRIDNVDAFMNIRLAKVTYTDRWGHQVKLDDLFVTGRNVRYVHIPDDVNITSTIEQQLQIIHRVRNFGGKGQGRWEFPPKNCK
UniProt Q5TCQ9: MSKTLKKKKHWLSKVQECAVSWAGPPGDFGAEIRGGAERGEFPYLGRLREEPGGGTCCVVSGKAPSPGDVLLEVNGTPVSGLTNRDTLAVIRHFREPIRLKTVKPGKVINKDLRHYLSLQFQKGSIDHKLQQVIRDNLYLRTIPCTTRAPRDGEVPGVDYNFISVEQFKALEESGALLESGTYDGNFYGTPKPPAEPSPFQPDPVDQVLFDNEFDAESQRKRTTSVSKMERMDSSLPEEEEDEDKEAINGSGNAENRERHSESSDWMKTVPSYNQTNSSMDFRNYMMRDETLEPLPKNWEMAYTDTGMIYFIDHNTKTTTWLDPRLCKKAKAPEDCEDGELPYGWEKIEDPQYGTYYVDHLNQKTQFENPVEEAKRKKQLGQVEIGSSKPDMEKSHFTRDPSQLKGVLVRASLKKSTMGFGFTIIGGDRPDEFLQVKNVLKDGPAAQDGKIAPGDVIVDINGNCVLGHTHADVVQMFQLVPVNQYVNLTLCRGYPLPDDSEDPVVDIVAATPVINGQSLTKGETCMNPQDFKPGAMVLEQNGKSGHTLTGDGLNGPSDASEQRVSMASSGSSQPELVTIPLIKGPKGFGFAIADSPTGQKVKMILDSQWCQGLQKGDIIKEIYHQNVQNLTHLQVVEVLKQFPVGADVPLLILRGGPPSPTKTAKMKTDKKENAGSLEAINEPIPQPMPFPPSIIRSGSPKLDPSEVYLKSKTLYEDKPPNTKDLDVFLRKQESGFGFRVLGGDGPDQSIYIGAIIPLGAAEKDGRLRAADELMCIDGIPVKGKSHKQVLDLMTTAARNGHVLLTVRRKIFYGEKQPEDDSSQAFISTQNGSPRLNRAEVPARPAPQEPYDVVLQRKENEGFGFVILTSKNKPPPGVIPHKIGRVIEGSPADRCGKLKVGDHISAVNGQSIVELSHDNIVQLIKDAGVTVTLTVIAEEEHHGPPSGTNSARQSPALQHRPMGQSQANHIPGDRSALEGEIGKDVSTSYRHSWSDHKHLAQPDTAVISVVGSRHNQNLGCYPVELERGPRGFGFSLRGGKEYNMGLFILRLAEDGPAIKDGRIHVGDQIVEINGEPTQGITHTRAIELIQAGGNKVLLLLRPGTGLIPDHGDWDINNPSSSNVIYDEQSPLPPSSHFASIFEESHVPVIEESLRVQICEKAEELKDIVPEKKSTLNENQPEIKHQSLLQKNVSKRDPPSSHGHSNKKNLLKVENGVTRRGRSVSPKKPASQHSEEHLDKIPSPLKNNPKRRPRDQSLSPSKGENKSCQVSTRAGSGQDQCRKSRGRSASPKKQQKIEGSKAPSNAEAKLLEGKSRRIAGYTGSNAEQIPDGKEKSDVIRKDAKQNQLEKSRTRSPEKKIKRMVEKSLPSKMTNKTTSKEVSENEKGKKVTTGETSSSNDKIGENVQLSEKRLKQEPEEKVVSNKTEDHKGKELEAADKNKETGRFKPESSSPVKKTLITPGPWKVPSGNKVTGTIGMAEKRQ
UniProt Q02779: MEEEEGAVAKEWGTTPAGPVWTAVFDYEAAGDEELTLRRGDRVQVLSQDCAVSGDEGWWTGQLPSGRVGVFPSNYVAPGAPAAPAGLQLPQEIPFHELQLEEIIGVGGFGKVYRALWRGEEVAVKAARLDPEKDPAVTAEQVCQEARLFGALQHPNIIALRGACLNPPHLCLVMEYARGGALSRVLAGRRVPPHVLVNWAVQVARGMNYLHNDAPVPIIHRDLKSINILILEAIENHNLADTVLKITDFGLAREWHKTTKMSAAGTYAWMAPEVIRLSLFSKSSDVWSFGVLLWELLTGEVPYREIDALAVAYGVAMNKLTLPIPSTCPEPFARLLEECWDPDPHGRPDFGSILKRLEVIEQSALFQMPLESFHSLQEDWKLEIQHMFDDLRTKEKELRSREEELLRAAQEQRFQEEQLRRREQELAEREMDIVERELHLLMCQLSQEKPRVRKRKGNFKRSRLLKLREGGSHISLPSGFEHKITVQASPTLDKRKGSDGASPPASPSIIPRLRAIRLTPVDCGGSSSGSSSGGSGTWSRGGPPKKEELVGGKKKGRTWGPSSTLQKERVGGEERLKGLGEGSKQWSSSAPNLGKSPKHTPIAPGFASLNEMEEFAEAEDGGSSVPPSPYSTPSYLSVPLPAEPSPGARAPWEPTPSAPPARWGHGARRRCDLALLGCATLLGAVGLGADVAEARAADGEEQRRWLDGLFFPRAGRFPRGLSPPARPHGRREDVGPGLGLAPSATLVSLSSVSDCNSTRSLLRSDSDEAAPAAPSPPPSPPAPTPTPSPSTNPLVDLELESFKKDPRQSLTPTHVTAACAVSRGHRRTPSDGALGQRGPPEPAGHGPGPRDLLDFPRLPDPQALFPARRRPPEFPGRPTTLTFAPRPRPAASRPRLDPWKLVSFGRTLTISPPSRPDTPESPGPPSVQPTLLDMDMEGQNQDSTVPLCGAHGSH
UniProt Q96LZ2: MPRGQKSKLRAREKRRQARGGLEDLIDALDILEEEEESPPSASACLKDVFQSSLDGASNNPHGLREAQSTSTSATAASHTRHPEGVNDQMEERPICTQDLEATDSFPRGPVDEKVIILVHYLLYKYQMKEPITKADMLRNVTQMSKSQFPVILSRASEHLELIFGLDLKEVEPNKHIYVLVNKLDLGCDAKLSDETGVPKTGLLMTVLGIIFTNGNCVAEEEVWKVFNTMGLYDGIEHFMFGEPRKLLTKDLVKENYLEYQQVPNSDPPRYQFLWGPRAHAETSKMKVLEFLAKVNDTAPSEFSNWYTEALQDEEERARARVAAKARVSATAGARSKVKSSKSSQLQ
UniProt Q9C099: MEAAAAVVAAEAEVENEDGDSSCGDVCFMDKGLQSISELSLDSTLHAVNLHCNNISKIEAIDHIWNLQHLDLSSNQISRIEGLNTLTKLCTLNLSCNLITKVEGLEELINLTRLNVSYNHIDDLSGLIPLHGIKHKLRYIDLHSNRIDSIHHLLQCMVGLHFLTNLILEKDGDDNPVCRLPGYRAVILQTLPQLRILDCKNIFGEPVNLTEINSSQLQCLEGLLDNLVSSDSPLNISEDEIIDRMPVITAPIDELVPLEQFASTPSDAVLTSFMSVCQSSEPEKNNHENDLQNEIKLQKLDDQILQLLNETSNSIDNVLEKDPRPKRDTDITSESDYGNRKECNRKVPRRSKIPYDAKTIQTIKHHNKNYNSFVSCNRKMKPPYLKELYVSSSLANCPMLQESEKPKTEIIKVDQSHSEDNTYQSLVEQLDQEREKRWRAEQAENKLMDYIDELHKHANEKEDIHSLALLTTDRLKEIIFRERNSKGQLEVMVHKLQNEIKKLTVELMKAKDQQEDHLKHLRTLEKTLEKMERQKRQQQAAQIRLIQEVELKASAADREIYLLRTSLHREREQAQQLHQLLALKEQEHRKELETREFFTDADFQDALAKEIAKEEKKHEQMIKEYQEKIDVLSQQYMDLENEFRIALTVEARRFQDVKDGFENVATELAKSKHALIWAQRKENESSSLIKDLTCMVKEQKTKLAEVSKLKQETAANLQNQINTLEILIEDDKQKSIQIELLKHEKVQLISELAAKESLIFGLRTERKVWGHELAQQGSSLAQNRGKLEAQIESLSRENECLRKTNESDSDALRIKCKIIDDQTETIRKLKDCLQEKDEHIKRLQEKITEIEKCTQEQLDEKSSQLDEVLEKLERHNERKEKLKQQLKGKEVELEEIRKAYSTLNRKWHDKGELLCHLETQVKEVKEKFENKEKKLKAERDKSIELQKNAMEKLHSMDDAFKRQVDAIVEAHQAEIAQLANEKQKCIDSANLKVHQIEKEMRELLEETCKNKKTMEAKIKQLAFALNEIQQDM
UniProt Q9BPZ7, whole entry, looked up: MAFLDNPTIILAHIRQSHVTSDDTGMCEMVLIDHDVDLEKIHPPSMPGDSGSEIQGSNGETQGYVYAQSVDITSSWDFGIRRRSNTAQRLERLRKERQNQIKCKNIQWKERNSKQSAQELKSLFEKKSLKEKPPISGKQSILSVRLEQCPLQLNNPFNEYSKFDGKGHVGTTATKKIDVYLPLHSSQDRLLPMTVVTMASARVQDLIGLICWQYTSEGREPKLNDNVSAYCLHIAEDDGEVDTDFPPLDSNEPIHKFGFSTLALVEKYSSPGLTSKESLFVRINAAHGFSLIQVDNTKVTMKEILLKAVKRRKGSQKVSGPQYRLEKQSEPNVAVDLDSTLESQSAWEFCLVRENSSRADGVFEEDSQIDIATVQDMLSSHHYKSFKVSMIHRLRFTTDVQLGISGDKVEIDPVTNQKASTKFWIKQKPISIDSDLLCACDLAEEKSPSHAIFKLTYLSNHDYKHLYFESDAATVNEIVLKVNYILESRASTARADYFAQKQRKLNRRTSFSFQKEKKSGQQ
UniProt O43325: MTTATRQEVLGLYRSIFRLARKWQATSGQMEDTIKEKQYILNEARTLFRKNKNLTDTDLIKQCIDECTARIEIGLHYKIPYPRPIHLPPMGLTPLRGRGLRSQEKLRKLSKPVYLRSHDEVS
UniProt Q9Y4Y9: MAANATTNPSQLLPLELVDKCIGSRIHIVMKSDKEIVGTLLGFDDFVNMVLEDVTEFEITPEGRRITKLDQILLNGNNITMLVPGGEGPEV
UniProt Q12851: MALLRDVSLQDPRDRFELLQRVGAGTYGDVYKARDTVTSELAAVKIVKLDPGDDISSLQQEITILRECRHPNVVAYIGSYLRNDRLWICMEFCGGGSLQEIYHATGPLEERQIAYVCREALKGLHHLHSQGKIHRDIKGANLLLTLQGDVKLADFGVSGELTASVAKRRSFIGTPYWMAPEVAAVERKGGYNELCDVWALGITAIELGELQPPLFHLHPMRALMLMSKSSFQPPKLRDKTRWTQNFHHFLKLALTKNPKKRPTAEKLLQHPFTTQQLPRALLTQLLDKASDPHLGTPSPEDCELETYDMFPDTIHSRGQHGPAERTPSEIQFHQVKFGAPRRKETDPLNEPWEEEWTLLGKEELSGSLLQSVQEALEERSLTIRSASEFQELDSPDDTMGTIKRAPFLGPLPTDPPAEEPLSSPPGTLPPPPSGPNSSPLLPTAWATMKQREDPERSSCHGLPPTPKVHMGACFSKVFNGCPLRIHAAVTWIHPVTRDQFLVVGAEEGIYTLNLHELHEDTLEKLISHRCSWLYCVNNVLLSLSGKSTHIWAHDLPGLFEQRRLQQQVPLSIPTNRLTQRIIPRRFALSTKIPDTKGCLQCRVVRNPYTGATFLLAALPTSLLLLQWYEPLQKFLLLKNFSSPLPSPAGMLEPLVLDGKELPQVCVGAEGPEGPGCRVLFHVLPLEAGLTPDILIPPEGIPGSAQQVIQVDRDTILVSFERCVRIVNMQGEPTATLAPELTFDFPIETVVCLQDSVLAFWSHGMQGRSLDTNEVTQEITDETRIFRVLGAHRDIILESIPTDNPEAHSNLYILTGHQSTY

log2 fold change, inactive:
LSR isoform 3 (UniProt Q86X29) 0.25
MANSC1 (UniProt Q9H8J5) 0.038
LSM10 (UniProt Q969L4) -0.143
MAGI3 isoform 1 (UniProt Q5TCQ9) 0.1
MAP3K10 (UniProt Q02779) -0.207
MAP3K3 isoform 2 (UniProt Q99759) -0.125
LSM14A, A0A140TA76 -0.06
MAPK11 (UniProt Q15759) 0.309
MAGEB10 (UniProt Q96LZ2) -0.222
LRRCC1 (UniProt Q9C099) 0.101
MAP4K4 isoform 6 (UniProt O95819) -0.025
LRRC8E (UniProt Q6NSJ5) -0.024
MAPKAP1 (UniProt Q9BPZ7) 0.01
LYRM1 (UniProt O43325) 0.075
LSM5 (UniProt Q9Y4Y9) -0.078
MAP4K2 (UniProt Q12851) -0.172
MAPRE3 isoform 2 (UniProt Q9UPY8) -0.097

For convenience, part of the list above:
log2 fold change, inactive:
MAGI3 isoform 1 (UniProt Q5TCQ9) 0.1
MAP3K10 (UniProt Q02779) -0.207
